In article PMC8578637:
No constants are given. Whether binding was seen depends on the method and setting. In cells and extracts the contact can be indirect. A yes stands for co-enrichment or nearness to the bait. Other partners may have been found. No binding means not detected with the bait.

The chains behind the UniProt entries cited, without tags or fusion partners.
UniProt Q8NFD5: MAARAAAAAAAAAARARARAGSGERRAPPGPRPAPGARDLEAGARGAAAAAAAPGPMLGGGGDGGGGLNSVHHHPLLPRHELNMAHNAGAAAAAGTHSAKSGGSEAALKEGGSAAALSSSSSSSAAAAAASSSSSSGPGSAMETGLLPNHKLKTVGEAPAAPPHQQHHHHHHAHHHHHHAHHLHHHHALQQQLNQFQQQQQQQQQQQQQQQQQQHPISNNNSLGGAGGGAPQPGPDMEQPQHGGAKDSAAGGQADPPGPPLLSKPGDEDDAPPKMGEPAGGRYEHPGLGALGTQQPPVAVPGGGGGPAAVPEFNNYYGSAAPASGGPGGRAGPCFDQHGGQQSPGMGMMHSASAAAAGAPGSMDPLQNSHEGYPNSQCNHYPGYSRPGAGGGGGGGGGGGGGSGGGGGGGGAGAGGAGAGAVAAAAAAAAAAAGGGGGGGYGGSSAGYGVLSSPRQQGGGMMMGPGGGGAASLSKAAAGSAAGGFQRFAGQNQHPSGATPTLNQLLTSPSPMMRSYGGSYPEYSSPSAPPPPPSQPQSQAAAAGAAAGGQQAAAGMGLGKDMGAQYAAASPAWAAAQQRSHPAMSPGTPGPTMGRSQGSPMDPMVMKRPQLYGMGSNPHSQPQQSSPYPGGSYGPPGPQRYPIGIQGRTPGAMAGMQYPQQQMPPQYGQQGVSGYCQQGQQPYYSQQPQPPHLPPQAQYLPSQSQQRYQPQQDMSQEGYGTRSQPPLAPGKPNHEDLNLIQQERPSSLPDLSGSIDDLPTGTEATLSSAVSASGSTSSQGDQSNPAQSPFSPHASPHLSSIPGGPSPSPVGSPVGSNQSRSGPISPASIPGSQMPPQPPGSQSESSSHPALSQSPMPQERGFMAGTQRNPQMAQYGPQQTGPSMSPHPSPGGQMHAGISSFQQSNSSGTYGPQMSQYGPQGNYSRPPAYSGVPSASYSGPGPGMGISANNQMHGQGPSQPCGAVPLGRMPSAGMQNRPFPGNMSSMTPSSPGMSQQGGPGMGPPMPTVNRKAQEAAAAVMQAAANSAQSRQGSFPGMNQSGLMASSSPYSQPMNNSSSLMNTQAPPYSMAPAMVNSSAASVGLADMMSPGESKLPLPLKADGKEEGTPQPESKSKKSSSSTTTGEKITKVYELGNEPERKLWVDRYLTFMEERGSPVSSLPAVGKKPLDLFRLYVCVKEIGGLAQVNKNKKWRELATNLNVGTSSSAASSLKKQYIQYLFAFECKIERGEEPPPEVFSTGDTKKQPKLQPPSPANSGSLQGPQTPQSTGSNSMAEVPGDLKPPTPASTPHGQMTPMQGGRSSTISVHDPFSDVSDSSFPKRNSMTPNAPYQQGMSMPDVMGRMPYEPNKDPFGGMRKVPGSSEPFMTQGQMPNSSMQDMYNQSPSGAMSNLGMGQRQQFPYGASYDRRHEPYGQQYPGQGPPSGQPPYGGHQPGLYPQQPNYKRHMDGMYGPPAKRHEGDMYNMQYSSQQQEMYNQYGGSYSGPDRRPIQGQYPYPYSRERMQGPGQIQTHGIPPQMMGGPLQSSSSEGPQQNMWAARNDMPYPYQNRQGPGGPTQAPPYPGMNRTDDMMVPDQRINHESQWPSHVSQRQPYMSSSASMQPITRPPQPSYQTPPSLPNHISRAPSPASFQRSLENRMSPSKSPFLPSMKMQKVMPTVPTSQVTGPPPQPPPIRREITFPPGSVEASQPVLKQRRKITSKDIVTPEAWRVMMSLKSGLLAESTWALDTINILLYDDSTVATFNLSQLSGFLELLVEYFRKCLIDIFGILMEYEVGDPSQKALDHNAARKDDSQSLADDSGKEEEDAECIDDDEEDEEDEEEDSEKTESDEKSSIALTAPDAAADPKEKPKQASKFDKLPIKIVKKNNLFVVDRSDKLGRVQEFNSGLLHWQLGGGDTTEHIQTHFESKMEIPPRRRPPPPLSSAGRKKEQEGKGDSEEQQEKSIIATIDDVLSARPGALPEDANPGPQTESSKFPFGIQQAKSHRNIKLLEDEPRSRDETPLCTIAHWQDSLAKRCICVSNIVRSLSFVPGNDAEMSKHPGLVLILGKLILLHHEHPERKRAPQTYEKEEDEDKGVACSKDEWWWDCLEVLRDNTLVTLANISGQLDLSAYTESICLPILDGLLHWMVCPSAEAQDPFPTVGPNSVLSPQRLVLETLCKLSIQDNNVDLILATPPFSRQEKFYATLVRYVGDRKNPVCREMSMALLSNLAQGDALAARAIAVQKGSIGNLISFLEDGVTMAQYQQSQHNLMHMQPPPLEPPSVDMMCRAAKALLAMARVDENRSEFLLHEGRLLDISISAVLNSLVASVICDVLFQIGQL
UniProt P51531: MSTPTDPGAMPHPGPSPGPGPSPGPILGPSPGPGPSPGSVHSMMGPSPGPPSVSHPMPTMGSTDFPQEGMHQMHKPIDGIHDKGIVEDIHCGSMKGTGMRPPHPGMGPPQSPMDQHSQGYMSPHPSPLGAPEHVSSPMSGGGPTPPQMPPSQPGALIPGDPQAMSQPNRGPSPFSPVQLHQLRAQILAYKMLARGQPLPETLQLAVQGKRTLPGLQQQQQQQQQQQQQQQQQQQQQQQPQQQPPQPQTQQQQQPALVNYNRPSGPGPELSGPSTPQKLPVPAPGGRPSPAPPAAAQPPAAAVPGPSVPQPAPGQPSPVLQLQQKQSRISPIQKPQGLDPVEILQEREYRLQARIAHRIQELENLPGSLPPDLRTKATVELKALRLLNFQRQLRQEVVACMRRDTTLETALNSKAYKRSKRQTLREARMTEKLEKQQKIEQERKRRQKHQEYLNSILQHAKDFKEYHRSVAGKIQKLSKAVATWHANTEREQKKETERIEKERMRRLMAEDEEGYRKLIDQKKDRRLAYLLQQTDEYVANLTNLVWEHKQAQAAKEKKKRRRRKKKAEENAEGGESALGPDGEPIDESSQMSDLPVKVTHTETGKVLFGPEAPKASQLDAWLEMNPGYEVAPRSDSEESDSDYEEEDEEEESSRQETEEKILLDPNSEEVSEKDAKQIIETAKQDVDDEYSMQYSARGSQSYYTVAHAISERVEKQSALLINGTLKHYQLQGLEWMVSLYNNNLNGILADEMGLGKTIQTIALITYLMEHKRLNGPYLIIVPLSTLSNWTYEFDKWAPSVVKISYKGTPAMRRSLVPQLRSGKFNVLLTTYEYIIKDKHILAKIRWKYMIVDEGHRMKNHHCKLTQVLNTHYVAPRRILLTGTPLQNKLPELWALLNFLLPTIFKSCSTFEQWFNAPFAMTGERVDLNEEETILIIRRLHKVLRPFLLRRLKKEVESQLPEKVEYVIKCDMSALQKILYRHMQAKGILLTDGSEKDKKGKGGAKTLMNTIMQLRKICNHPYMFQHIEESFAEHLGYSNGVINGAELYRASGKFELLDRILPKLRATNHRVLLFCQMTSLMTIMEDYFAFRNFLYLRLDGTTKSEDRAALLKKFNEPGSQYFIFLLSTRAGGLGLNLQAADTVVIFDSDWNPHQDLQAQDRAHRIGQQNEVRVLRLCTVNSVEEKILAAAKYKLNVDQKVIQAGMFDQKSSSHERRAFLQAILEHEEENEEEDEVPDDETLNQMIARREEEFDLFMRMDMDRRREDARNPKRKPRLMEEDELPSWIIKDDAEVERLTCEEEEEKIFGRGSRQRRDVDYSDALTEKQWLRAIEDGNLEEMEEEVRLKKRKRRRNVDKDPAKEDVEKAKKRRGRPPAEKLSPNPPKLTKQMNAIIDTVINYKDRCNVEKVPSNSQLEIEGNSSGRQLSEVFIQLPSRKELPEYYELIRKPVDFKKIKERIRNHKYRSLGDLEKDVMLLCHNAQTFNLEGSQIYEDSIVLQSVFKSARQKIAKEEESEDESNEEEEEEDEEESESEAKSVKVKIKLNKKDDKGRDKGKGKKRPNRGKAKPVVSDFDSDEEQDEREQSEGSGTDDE
UniProt Q9UJQ4: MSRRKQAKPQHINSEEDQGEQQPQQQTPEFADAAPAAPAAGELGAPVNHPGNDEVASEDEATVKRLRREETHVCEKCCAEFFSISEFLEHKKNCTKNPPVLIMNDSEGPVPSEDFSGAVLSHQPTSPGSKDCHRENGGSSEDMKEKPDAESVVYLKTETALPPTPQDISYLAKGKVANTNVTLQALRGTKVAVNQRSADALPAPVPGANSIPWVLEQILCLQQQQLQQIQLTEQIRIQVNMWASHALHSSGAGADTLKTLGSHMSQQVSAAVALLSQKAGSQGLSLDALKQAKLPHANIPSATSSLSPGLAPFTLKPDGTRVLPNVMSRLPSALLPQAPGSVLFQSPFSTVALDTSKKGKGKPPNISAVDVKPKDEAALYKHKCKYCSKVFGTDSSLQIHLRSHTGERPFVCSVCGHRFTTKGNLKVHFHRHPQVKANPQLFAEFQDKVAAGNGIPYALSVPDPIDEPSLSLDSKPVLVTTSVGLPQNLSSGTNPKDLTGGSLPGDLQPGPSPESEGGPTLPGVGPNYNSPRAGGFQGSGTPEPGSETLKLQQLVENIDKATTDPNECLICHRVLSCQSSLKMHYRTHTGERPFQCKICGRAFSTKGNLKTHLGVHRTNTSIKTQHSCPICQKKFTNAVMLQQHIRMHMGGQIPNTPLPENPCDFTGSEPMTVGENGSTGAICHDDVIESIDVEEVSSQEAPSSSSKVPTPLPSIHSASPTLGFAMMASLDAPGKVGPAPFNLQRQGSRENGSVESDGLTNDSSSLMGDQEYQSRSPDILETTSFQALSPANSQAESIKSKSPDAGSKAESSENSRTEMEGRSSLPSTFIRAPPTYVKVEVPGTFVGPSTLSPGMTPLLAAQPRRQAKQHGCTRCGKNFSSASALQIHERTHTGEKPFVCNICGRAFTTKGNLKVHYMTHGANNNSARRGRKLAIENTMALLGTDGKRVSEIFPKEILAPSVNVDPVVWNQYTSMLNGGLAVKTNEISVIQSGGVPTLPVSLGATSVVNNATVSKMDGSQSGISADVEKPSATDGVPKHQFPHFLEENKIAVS

Molecular target: ARID1B (human (endogenous in iPSC-derived cells)) (UniProt Q8NFD5)
Assay: affinity purification with mass spectrometry; immunoprecipitation of endogenous ARID1B (6 ug ARID1B antibody, Dynabeads Protein A, 3 h at 4 °C) from 1.5 mg dialysed nuclear extract of control cells at day 5 of iPSC-to-CNCC differentiation; washes with co-IP buffer (100 mM NaCl, 0.1% NP-40); glycine pH 3.0 elution; LC-MS/MS; control IP with beads only

Row | Substance | binding
1 | SMARCA2 (from UniProt P51531 1-1590) | no binding
2 | SMARCA4 (from UniProt P51532 1-1647) | binds
3 | SALL4 (from UniProt Q9UJQ4 1-1053) | binds
